Reference: patent US20100076060
For at least one entry, the source does not settle the construct or the ends of the probe.

Protein sequences, listed by entry. Tags and fused reporters are not part of them. Residues count along the entry.
UniProt Q07011, 24-186: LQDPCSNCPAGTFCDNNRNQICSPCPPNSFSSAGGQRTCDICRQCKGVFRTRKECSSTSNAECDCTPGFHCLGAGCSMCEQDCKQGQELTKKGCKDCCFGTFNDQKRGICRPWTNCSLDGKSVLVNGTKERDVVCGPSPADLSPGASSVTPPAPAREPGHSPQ

These sequences were tested against 4-1BB (CD137) extracellular portion (Homo sapiens) (UniProt Q07011) (assay: SELEX). Settings: 2'-F pyrimidines; purified recombinant protein; protein details: human IgG1 Fc fusion.

Selection result, selected:
GGGAGAGAGGAAGAGGGAUGGGACCAGCUUCCCUGGGCCUGCUGUGAACUCCAGCCUGACUACAUAACCCAGAGGUCGAUAGUACUGGAUCCCCCC [4-1BB aptamer SEQ 64]

The sequences below were run against T1, 4-1BB (CD137) extracellular portion (Mus musculus) (UniProt P20334) (assay: SELEX). Settings: 2'-F pyrimidines; purified recombinant protein; protein details: human IgG1 Fc fusion.
T1 sequence: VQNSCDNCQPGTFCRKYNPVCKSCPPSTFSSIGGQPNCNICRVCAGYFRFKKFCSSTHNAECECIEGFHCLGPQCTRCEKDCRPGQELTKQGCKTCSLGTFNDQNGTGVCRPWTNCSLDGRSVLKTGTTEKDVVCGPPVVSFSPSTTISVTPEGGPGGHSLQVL

Selection result, selected:
GGGAGAGAGGAAGAGGGAUGGGAAAGCGACAAUUCUUACUACUCCCCAAGCUCCACGCCUUUCAUAACCCAGAGGUCGAUAGUACUGGAUCCCCCC [4-1BB aptamer SEQ 12], GGGAGAGAGGAAGAGGGAUGGGAACCGACCGCAGAUCUGGACACUAGCUUUCGCGAGGAUUCAUAACCCAGAGGUCGAUAGUACUGGAUCCCCCC [4-1BB aptamer SEQ 28], GGGAGAGAGGAAGAGGGAUGGGAACGGCCCAAUGACUUCGCCUUCUGCCCCCCUAAGCUUCCAUAACCCAGAGGUCGAUAGUACUGGAUCCCCCC [4-1BB aptamer SEQ 16], GGGAGAGAGGAAGAGGGAUGGGAACUACCUCCUCGAACCAUAGUUCAACACCAUCCAGCCAUCAUAACCCAGAGGUCGAUAGUACUGGAUCCCCCC [4-1BB aptamer SEQ 19], GGGAGAGAGGAAGAGGGAUGGGAAGACGAUACCUAGCCUCAAAAUUCCUCCCCCGACUUCCUCAUAACCCAGAGGUCGAUAGUACUGGAUCCCCCC [4-1BB aptamer SEQ 13], GGGAGAGAGGAAGAGGGAUGGGAAGUUAAUCGCGCCUUACCAGCUUCAGGACCAUUCAAUUCCAUAACCCAGAGGUCGAUAGUACUGGAUCCCCCC [4-1BB aptamer SEQ 33], GGGAGAGAGGAAGAGGGAUGGGACACUGAAAACGGGCAAGUGACUACGAUUCGUGUCAGACCAUAACCCAGAGGUCGAUAGUACUGGAUCCCCCC [4-1BB aptamer SEQ 42], GGGAGAGAGGAAGAGGGAUGGGACCAGCUUCCCUGGGCCUGCUGUGAACUCCAGCCUGACUACAUAACCCAGAGGUCGAUAGUACUGGAUCCCCCC [4-1BB aptamer SEQ 64], GGGAGAGAGGAAGAGGGAUGGGACGACCACCAACGAUUGAGCAGCUAGAUUCGACCGACACUCAUAACCCAGAGGUCGAUAGUACUGGAUCCCCCC [4-1BB aptamer SEQ 46], GGGAGAGAGGAAGAGGGAUGGGAUCAGUACAUGCUCCGGGGCAGCCGAAUAUCUCGCGCUUCAUAACCCAGAGGUCGAUAGUACUGGAUCCCCCC [4-1BB aptamer SEQ 24], GGGAGAGAGGAAGAGGGAUGGGCAAACCCAUGCAAGACUCUUCAAUCUCCAACCCCUUCCAACAUAACCCAGAGGUCGAUAGUACUGGAUCCCCCC [4-1BB aptamer SEQ 37], GGGAGAGAGGAAGAGGGAUGGGCAAGCACUCUUCAGGCUAAGGACUCUCUUGACACCCCGCCAUAACCCAGAGGUCGAUAGUACUGGAUCCCCCC [4-1BB aptamer SEQ 7], GGGAGAGAGGAAGAGGGAUGGGCAAGCACUCUUCAGGCUAAGGACUCUCUUGACACCCCGCCAUAACCCAGAGGUCGAUAGUACUGGAUCCCCCC [4-1BB aptamer SEQ 26], GGGAGAGAGGAAGAGGGAUGGGCACCCGUCUGCCAGACGCUCGACCCAAACUCCAGCCUCUCAUAACCCAGAGGUCGAUAGUACUGGAUCCCCCC [4-1BB aptamer SEQ 35], GGGAGAGAGGAAGAGGGAUGGGCAGAAACUAGACCUCCGAUCGGACACCCGGUCCCUUCGUCCAUAACCCAGAGGUCGAUAGUACUGGAUCCCCCC [4-1BB aptamer SEQ 5], GGGAGAGAGGAAGAGGGAUGGGCCCCCUCGCAAGACCCUCAUCGCAUCUCAAGACACCUACCCAUAACCCAGAGGUCGAUAGUACUGGAUCCCCCC [4-1BB aptamer SEQ 45], GGGAGAGAGGAAGAGGGAUGGGCCGCCAUUAACCCUGAACAGAAUCUUCCUAUCCCAACCCGCAUAACCCAGAGGUCGAUAGUACUGGAUCCCCCC [4-1BB aptamer SEQ 21], GGGAGAGAGGAAGAGGGAUGGGCCUCCUUCCUAACCCGCAAACACGAUUGGCUCGAAACUUCCAUAACCCAGAGGUCGAUAGUACUGGAUCCCCCC [4-1BB aptamer SEQ 27], GGGAGAGAGGAAGAGGGAUGGGCGACCGAACGUGCCCUUCAAAGCCGUUCACUAACCAGUGACAUAACCCAGAGGUCGAUAGUACUGGAUCCCCCC [4-1BB aptamer SEQ 3 (full SEQ 88)], GGGAGAGAGGAAGAGGGAUGGGCGACCGAACGUGCCCUUCAAAGCCGUUCACUAACCAGUGCCAUAACCCAGAGGUCGAUAGUACUGGAUCCCCCC [4-1BB aptamer SEQ 1], GGGAGAGAGGAAGAGGGAUGGGCGACCGAACGUGCCCUUCAAAGCCGUUCACUAACCAGUGGCAUAACCCAGAGGUCGAUAGUACUGGAUCCCCCC [4-1BB aptamer SEQ 2], GGGAGAGAGGAAGAGGGAUGGGCGACCGAACGUGCCCUUCAAAGCCGUUCACUAACCAGUGGCAUAACCCAGAGGUCGAUAGUACUGGAUCCCCCC [4-1BB aptamer SEQ 30], GGGAGAGAGGAAGAGGGAUGGGCGAGAACCCGCAUCUUCGGAUGCGCCCCCCUAGGACUUACCAUAACCCAGAGGUCGAUAGUACUGGAUCCCCCC [4-1BB aptamer SEQ 14], GGGAGAGAGGAAGAGGGAUGGGCGCUCUCUCACAACCACGACCUCCGAUCUGAUAAUUCGUCCAUAACCCAGAGGUCGAUAGUACUGGAUCCCCCC [4-1BB aptamer SEQ 17], GGGAGAGAGGAAGAGGGAUGGGCGUCAACCCCUUUCAGUCUCCCCGUAAGCAUCUCUUCCACCAUAACCCAGAGGUCGAUAGUACUGGAUCCCCCC [4-1BB aptamer SEQ 40], GGGAGAGAGGAAGAGGGAUGGGCUCCAAUCCCCGAAAUCUUCAAGCUGCUCUCCAGUCCCCACAUAACCCAGAGGUCGAUAGUACUGGAUCCCCCC [4-1BB aptamer SEQ 41], GGGAGAGAGGAAGAGGGAUGGGCUCCUAGACAGACGAUGUCUGAACGACUCUUGAAGGGCAGCAUAACCCAGAGGUCGAUAGUACUGGAUCCCCCC [4-1BB aptamer SEQ 20], GGGAGAGAGGAAGAGGGAUGGGCUCCUAGUCAGACGAUGUCUGAACGACUCUUGAAGGGCAGCAUAACCCAGAGGUCGAUAGUACUGGAUCCCCCC [4-1BB aptamer SEQ 43], GGGAGAGAGGAAGAGGGAUGGGCUGACUGCCACUUCUUCCCAGCAAUCUUCACCGUCCUUCUCAUAACCCAGAGGUCGAUAGUACUGGAUCCCCCC [4-1BB aptamer SEQ 32], GGGAGAGAGGAAGAGGGAUGGGCUUCAACAACGACUCGCCAUACAACAACACACAACCCCUUCAUAACCCAGAGGUCGAUAGUACUGGAUCCCCCC [4-1BB aptamer SEQ 38], GGGAGAGAGGAAGAGGGAUGGGCUUCCACACUCUCCUAGCUGGACAACAGACUAACCUUCUUCAUAACCCAGAGGUCGAUAGUACUGGAUCCCCCC [4-1BB aptamer SEQ 34], GGGAGAGAGGAAGAGGGAUGGGGAAGACCAAACGAGCCACCUUCAAGUCCCAUCCAACCCCUCAUAACCCAGAGGUCGAUAGUACUGGAUCCCCCC [4-1BB aptamer SEQ 39], GGGAGAGAGGAAGAGGGAUGGGGAAGCACAAUAGGCCGCAACACUUCAAAACCCAUUCAAUCCAUAACCCAGAGGUCGAUAGUACUGGAUCCCCCC [4-1BB aptamer SEQ 6], GGGAGAGAGGAAGAGGGAUGGGGAAGUGACAGCUCCCAGCGCUUCAAAGCUCAUCUAUAACUCAUAACCCAGAGGUCGAUAGUACUGGAUCCCCCC [4-1BB aptamer SEQ 4], GGGAGAGAGGAAGAGGGAUGGGGACCAAGGGCAGCAUCACCGUUCCCCCCCUAGGAGCUUACCAUAACCCAGAGGUCGAUAGUACUGGAUCCCCCC [4-1BB aptamer SEQ 15], GGGAGAGAGGAAGAGGGAUGGGGACCACCACAGCGACAGGCUCGCACGACUCUCGAAGAGGCAUAACCCAGAGGUCGAUAGUACUGGAUCCCCCC [4-1BB aptamer SEQ 25], GGGAGAGAGGAAGAGGGAUGGGGCACAGCAACACCACGACCCCCCCUAGGCUUCCGCCCGCACAUAACCCAGAGGUCGAUAGUACUGGAUCCCCCC [4-1BB aptamer SEQ 10], GGGAGAGAGGAAGAGGGAUGGGGCACAGCAACACCACGACCCCCCCUAGGCUUCCGCCCGCCCAUAACCCAGAGGUCGAUAGUACUGGAUCCCCCC [4-1BB aptamer SEQ 8], GGGAGAGAGGAAGAGGGAUGGGGCACAGCAACACCACGACCCCCCCUAGGCUUCCGCCCGCGCAUAACCCAGAGGUCGAUAGUACUGGAUCCCCCC [4-1BB aptamer SEQ 9], GGGAGAGAGGAAGAGGGAUGGGGCACCAAACACCGGUUCAGAACCCAUCAUGUAACUCCUUGCAUAACCCAGAGGUCGAUAGUACUGGAUCCCCCC [4-1BB aptamer SEQ 18], GGGAGAGAGGAAGAGGGAUGGGGCACUCUUACUUCUCGCCCACCAACCGAACCCAGCCAUCUCAUAACCCAGAGGUCGAUAGUACUGGAUCCCCCC [4-1BB aptamer SEQ 31], GGGAGAGAGGAAGAGGGAUGGGGCUUCUACAGGGGGUAAAGAUUCGCUCAUCACUCGCAAAACAUAACCCAGAGGUCGAUAGUACUGGAUCCCCCC [4-1BB aptamer SEQ 29], GGGAGAGAGGAAGAGGGAUGGGUAACGGCCCAAUGACUUCGCCUUACUGCCCCCCUAAGCUUCCAUAACCCAGAGGUCGAUAGUACUGGAUCCCCCC [4-1BB aptamer SEQ 11], GGGAGAGAGGAAGAGGGAUGGGUAAGCGGCCUCGAACACCGAUUGACUACUGCCCGAACAUCCAUAACCCAGAGGUCGAUAGUACUGGAUCCCCCC [4-1BB aptamer SEQ 44], GGGAGAGAGGAAGAGGGAUGGGUCACCCGACGAUACCUAACUUCCUCCGACAAGCCUUUGCCCAUAACCCAGAGGUCGAUAGUACUGGAUCCCCCC [4-1BB aptamer SEQ 22], GGGAGAGAGGAAGAGGGAUGGGUGAUCCAAAACCAAAUAGCAGUAGACUCUCGAAGAGGACGCAUAACCCAGAGGUCGAUAGUACUGGAUCCCCCC [4-1BB aptamer SEQ 36]
